No constants are given. Whether binding was seen depends on the method and setting. Some entries that bind do so weakly or less than the wild type.

The target of this experiment is human ITIH-1 antigen (inter-alpha trypsin inhibitor heavy chain 1) (human). The experiment in a line: biolayer interferometry, AR2G biosensor (AbClon Inc.). For orientation: Biolayer interferometry detects binding as a change in optical thickness at a sensor tip.

B1: monoclonal antibody 5D6 against ITIH1 (antibody, V domains shown)
VH: EVQLQQSGAELVKPGTSVKMSCKASGYTFTSYWMHWVRQRPGQGLEWIGDIYPGTDSTNYNEKFKSKATLTVDTSSSTAYMQLSSLTSEDSAVYYCSRSGDYYDYWGQGTTVTVSS
VL: DIVLTQSPASLAVSLGQRATISCRASQSVSTSSYSYMHWYQQKPGQPPKLLIKYASNLESGVPARFSGSGSGTDFTLNIHPVEEEDTATYYCQHSWEIPWTFGGGTKLEIK
For the molecule B1, the binding entry was “binds”.

B2: monoclonal antibody 9E1 against ITIH1 (antibody, V domains shown)
VH: EVQLQQSGTVLARPGASVKMSCRASGYSFTSYWMHWVKQRPGQGLEWIGSIYPGNTDTNYNQKFKGKAKLTAVTSASTAYMELSSLTNEDSAVYYCTRYGTSEGFAYWGQGTLVTVSA
VL: DIVMTQSPASLAVSLGQRATISCRASQSVSTSSYSYMHWYQQKPGQPPKLLIKYASNLESGVPARFSGSGSGTDFTLNIHPVEEEDSATYYCQHSWEIPPTFGGGTKLEIK
Take B2: the binding entry was “binds”.
